Percent effect of library compounds

From ChEMBL document CHEMBL3988442, “University of Dundee, Small-Polar-MMV Screening Library” (2021).

A: 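Whole-parasite assay of Trypanosoma brucei over 72 hours; the read-out is not stated. Concentration: 30 µM. The record gives no direction; compounds that gave an IC50 in retests scored well above the rest, so higher reads as stronger inhibition. Values scatter widely below zero; nearly all retest evidence comes from the higher of the two concentrations used. Size under these conditions: about 64,000 compounds, about 940 of them at 50% or above in at least one test.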
B: 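Assay of Toxoplasma gondii numbers, read through their beta-galactosidase reporter with a colour substrate. Tested at 10 µM. The record gives no direction; the compounds picked for IC50 retests had high values, so higher reads as fewer parasites. Of about 67,000 compounds tested this way, about 260 (0.38%) reached 50% or more in at least one test.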
C: 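Cell assay of Leishmania donovani living inside macrophages; the read-out is not stated. Compounds at 30 µM. Direction is inferred from retests: higher values go with stronger inhibition. Size under these conditions: about 69,000 compounds, about 1,000 of them at 50% or above in at least one test.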

The filed quantity is “Percent Effect” (%). The record does not define 0% and 100%; most values in the screen are far below 50% and negative numbers occur (in some assays of this library far below -100). This is an unselected part of the compounds tested. Two or more numbers in one place are separate tests of the same structure; such repeats can differ widely. A dash means the value is not listed here; it may have been measured.

SMILES	A	B	C
CC(=O)N1CCCC1c1cc(N2CCN(CC3CC3)CC2)cc(C)n1 (stereo not shown)	-21.71	14.45	10.89 and 16.81
COc1ccc(OC)c(CCNC(=O)NC(C)Cn2ccnc2)c1 (stereo not shown)	-75.2	0.5646	-12.57
Cl.Cn1ccnc1CNC(=O)c1ccnc(C2CCNCC2)c1	-23.14	23.97	4.234
Cc1nc(CN2CCC(NS(C)(=O)=O)CC2)co1	-58.35	17.73	29.79
Cc1cc(CN2CCCC(c3cc(C(F)(F)F)[nH]n3)C2)no1 (stereo not shown)	20.24	5.356	27.69
[H][C@@]12CCN(Cc3ccncc3)C[C@]1([H])OCCN(c1ccccc1)C2=O	21.34	3.383	9.423
CNC(=O)C1Cc2ccccc2CN1CCCc1ccccc1 (stereo not shown)	-18.12	-2.415	9.698
CCCN1CCN(Cc2cc3cc(OCC)ccc3[nH]c2=O)CC1	-11.74	11.14	-8.29
O=C(c1ccoc1)N1Cc2cnn(CC3CC3)c2C(COCC2CC2)C1 (stereo not shown)	-29.16	21.02	-14.05
COC(=O)c1cccn1C1CCN(Cc2nc3ccccc3o2)CC1	-	4.708	21.3
CCCN(C(=O)c1cnccn1)c1nc2c(s1)CCc1c-2cnn1C	47.96	-36.92	-20.79
C=C(C)CNCC1(O)CCCN(Cc2ccc(F)c(F)c2)C1=O (stereo not shown)	-4.808	7.008	36.85
O=C(Cn1ccnc1)N1CC[C@H](Oc2cccc(F)c2)[C@@H](O)CC1	-7.82	-14.86	-2.874
CCCNC(=O)C1CCN(Cc2csc(C(C)C)n2)CC1	-	6.248	8.933
CC(NC(=O)Nc1nccs1)c1ccncc1 (stereo not shown)	0.225	3.808	22.17
O=S1(=O)NC2(CCCN(Cc3ccc(Cl)cc3)C2)COc2ccccc21 (stereo not shown)	-	13.99	-17.47
COc1cccc(CC2CN(C3CCN(C(C)=O)CC3)CCO2)c1 (stereo not shown)	0.6909	4.772	17.82
CCCNC(=O)c1ncn2c1CN(CC(C)C)S(=O)(=O)c1ccccc1-2	-11.39	-3.034	11.72
Cc1noc(CCCC(=O)NC(C)c2cn(-c3ccccc3)nn2)n1 (stereo not shown)	-1.912	-2.541	23.83
Cn1ccc(C(=O)N2CCC(c3cc(CCO)n(C)n3)C2)n1 (stereo not shown)	-14.78	-14.45	10.06
Cc1cc(CN(C)C(=O)NC2CCN(S(C)(=O)=O)CC2)no1	23.6	6.254	5.708
O=S1(=O)[C@@H](c2ccccc2)[C@H](CO)CN1c1ccccc1	8.749	-1.407	-3.706
CC(C)c1nc(CN2CCCCC2Cn2cncn2)cs1 (stereo not shown)	7.247	-17.04	-9.904
O=C(O)C(F)(F)F.O=C(O)C(F)(F)F.c1ccc(OCc2nnc3n2CCN(Cc2ccco2)C3)nc1	-9.745	18.17	36.2
CN(Cc1ccc([S+](C)[O-])cc1)c1cncc(Br)c1 (stereo not shown)	-0.3979	2.482	-43.29
COCCN1CCCC(O)(CN2CCN(Cc3ccncc3)CC2)C1=O (stereo not shown)	-47.09	-8.771	11.6
CN1CCCCCC1C(=O)N1CCCN(c2ccccc2)CC1 (stereo not shown)	-7.832	-3.081	-1.836
Cc1ncncc1-c1ccnc(N(C)C)n1	-13.99	22.13	4.8 and 8.669
Cc1nc(C2CCCN(C(=O)CN3CCCNC3=O)C2)sc1C (stereo not shown)	-8.887	-1.382	11.02
CN(c1ncc(C(N)=O)cc1Cl)C1CCC(c2ccccc2)CC1 (stereo not shown)	5.779	-0.531	-10.16
Cc1cc(C)c2c(N3CCN(C(=O)N4CCOCC4)CC3)ncnc2n1	-11.72	4.498	-10.11
O=C(c1cnc2c(cnn2C2CCCC2)c1)N1CCN(CCO)CC1	-0.5154	-0.1142	12.53
Cn1cc(CN2CCCC(O)C2)c(-c2ccccc2F)n1 (stereo not shown)	-36.93	5.716	14.43
COCCN1CCC(NCc2cccnc2)C1 (stereo not shown)	-19	0.6353	-13.42
CCN1CCC(NC(=O)NCC(O)c2ccc(Cl)c(F)c2)CC1 (stereo not shown)	7.453	2.159	7.985
O=C(Cc1ccon1)Nc1cncc(Br)c1O	-21.35	6.633	-72.98
CCc1nc(CN(C)Cc2nnc(-c3cccs3)o2)cs1	-34.54	5.997	15.54
O=C(O)C(F)(F)F.[H][C@@]12CCN(c3cccnc3)C[C@]1([H])CN(C(=O)C1CCC1)C2	-43.23	6.52	7.145
CN1CCN(Cc2cccnc2)C2(CCN(Cc3ccoc3)C2)C1=O.O=C(O)C(F)(F)F.O=C(O)C(F)(F)F.O=C(O)C(F)(F)F (stereo not shown)	-37.45	4.641	-15.99
Cc1ccc(-c2nccn2-c2ccc(OC3CCN(C)CC3)cc2)o1	6.637	-4.011	12.58
[H][C@@]12COC[C@]1(CNS(C)(=O)=O)CN(C(=O)C1CCSCC1)C2	-61.89	-28.05	23.97
CCc1cnc(NC2CCc3c(ccc(=O)n3C)C2)nc1 (stereo not shown)	-29.49	-6.585	-26.68
CCN(CC)CCNC(=O)CCc1c(C)nn(-c2ccccc2Cl)c1C	-32.13	-0.1344	4.689
CCn1c(CC2CCN(C(=O)c3cc(CC(C)C)on3)CC2)n[nH]c1=O	-	3.743	-20.78
Cc1ccc(C(=O)N2CCCC(Cn3cc(C(C)(C)N)nn3)C2)s1 (stereo not shown)	-96.71	8.893	21.13
CC(C)c1nc(C2CCCN2Cc2cc(=O)n(C)c(=O)n2C)no1 (stereo not shown)	9.764	2.121	22.3
N#CC1=C(N)Nn2c(nnc2-c2ccccc2F)S1	-51.04	7.282	3.364 and 12.85
Cc1noc(C)c1CN(C)C(=O)NC1CCN(c2ncccn2)CC1	-5.588	12.26	3.34

For reference, 4 entries once more:

* Cl.Cn1ccnc1CNC(=O)c1ccnc(C2CCNCC2)c1 : A: -23.14%; B: 23.97%; C: 4.234%
* CC(C)c1nc(CN2CCCCC2Cn2cncn2)cs1 (stereo not shown) : A: 7.247%; B: -17.04%; C: -9.904%
* CN1CCCCCC1C(=O)N1CCCN(c2ccccc2)CC1 (stereo not shown) : A: -7.832%; B: -3.081%; C: -1.836%
* CCCN1CCN(Cc2cc3cc(OCC)ccc3[nH]c2=O)CC1 : A: -11.74%; B: 11.14%; C: -8.29%